No constants are given. Whether binding was seen depends on the method and setting. Binding seen in cells or lysates may run through a third protein. These calls come from enrichment with a bait or labelling near it, and not all partners need be listed.
Target: Flag-METTL3 (methyltransferase-like 3) (human) (UniProt Q86U44)
Assay: affinity purification with mass spectrometry; pFlag-METTL3-transfected RD cells infected with EV71; IP with anti-Flag antibody; MS analysis

Protein sequences, listed by entry. Tags and fused reporters are not part of them.
UniProt Q86U44: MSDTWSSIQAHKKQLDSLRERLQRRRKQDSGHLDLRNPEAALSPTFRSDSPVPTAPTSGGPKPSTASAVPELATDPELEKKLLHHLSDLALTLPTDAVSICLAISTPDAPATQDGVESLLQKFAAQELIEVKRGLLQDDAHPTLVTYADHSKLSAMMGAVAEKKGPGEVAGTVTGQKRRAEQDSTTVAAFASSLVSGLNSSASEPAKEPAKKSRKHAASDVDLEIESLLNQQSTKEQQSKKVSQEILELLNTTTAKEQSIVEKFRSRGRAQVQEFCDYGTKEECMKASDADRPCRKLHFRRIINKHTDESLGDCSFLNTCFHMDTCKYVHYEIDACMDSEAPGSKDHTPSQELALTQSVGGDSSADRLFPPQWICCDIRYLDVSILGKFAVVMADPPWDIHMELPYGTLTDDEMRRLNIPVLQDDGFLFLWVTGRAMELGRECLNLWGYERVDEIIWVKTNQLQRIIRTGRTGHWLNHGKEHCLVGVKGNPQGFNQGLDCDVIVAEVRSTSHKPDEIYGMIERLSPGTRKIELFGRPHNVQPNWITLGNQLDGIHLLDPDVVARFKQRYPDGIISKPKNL
UniProt O43823: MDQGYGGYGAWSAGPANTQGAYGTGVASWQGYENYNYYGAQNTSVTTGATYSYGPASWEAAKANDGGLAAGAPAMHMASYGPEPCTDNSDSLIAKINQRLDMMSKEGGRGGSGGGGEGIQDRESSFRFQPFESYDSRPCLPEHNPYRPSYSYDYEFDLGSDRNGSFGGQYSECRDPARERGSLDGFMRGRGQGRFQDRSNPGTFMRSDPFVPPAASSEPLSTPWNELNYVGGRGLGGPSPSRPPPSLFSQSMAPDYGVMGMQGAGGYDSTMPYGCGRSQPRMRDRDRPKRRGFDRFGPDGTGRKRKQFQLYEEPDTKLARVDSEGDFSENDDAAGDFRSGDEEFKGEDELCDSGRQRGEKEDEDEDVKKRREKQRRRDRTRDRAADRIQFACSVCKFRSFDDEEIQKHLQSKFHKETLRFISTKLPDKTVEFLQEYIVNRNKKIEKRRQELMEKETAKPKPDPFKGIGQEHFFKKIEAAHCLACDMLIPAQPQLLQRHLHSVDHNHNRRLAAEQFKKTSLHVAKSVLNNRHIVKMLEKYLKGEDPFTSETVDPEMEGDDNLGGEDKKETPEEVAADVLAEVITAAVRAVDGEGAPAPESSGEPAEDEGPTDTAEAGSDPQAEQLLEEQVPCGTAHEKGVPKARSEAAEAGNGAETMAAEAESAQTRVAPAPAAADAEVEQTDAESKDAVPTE

binding: binds
Substance: AKAP8, endogenous (from UniProt O43823 1-692)

— paper PMC11700651
